From PMC3538741
No constants are given. Whether binding was seen depends on the method and setting. Binding seen in cells or lysates may run through a third protein. Some entries that bind do so weakly or less than the wild type.

The chains behind the UniProt entries cited, without tags or fusion partners. Where a name states a change or a piece, a line headed by the entry shows the natural chain unless it says otherwise. Residues count along the entry.
UniProt Q8N726: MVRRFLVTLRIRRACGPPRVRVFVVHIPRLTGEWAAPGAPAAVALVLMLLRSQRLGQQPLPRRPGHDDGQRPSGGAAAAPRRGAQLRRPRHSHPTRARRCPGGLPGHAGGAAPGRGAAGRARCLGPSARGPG
UniProt Q07021, residues 74-282: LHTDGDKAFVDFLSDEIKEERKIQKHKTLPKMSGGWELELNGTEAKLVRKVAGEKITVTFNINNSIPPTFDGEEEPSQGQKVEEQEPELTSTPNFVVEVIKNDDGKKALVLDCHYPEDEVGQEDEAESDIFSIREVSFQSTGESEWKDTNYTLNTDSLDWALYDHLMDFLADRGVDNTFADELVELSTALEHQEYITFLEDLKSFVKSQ

Assays:
Assay in all cases: co-IP; 1 mg total extract of U2OS cells 24 h after transfection with X-press tagged ARF (wt or mutant) and MDM2 or myc tagged p32; IP with anti X-press antibody (legend of Fig. 3b: anti ARF), blot with anti MDM2, anti myc and anti ARF antibodies
[1] = target: X-press tagged p14ARF T8A mutant (human) (UniProt Q8N726)
[2] = target: X-press tagged p14ARF T8D mutant (human) (UniProt Q8N726)
[3] = target: X-press tagged wild type p14ARF (human) (UniProt Q8N726)

- binding [1]: binds
- binding [2]: binds
- binding [3]: binds
Substance: myc tagged p32 (from UniProt Q07021 74-282)
